We go through two substances from paper PMC8901925.

Chains of the proteins cited; added tags and fusions are not shown.
UniProt P35579: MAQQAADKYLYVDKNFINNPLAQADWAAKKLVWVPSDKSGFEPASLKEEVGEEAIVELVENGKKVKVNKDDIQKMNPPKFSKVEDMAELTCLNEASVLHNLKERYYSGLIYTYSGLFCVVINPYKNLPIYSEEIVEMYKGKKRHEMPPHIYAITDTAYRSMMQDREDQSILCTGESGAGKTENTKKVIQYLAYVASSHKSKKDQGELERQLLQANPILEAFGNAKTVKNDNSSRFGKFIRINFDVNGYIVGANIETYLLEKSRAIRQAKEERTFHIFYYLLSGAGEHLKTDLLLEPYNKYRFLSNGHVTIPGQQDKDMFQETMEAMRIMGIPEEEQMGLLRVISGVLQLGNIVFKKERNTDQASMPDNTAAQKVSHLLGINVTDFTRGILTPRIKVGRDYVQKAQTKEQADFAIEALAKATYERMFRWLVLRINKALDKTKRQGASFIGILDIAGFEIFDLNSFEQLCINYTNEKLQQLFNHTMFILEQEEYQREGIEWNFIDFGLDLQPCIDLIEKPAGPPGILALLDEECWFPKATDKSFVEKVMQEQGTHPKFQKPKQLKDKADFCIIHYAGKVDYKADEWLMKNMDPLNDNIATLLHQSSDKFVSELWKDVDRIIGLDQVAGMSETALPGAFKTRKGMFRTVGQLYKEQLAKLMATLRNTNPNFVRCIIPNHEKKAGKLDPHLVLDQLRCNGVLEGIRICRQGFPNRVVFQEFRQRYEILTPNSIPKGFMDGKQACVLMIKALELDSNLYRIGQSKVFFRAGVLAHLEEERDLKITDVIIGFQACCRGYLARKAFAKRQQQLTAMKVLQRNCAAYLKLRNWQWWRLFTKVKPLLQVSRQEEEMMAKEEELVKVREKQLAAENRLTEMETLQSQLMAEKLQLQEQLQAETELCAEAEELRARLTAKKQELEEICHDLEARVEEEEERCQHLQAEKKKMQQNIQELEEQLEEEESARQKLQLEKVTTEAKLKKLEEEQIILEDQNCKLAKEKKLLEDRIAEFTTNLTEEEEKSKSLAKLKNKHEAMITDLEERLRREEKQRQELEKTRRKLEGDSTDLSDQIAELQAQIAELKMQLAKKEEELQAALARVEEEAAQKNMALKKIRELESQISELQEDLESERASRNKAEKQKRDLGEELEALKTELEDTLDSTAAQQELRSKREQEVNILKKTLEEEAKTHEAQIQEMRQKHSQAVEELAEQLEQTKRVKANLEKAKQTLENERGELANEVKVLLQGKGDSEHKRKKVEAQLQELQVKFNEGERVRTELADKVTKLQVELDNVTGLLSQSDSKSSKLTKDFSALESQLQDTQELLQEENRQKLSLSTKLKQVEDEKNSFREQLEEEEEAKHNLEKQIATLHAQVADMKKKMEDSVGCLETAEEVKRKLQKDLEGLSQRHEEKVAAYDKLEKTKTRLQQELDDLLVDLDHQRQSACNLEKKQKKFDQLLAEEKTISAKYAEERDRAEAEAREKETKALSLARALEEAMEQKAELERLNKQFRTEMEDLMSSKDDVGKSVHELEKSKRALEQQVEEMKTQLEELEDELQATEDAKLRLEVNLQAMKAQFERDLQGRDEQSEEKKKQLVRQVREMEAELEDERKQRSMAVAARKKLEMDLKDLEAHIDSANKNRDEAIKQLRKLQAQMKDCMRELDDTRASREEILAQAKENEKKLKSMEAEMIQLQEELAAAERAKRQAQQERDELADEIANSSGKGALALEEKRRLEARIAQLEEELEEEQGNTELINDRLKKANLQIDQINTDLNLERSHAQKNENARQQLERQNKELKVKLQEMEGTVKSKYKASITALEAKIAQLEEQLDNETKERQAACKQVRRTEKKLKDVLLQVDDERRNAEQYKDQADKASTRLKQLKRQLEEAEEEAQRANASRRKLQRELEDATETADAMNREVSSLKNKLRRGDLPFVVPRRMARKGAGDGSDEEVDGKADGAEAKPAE
UniProt P49841: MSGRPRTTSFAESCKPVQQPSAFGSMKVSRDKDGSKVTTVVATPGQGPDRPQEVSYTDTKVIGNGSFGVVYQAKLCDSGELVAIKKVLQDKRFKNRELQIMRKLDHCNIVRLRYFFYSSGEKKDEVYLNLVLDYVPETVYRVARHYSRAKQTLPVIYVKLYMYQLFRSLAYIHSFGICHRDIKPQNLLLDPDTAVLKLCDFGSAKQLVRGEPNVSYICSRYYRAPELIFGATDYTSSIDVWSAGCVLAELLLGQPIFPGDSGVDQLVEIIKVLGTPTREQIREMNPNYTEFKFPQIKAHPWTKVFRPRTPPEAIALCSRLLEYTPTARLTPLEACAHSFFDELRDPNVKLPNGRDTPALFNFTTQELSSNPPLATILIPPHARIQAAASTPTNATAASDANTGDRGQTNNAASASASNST

Assay [1] addresses MYH9 (human (endogenous in LY1 and LY3)) (UniProt P35579). Description: co-IP; endogenous proteins of LY1 and LY3 cells, Pierce Co-Immunoprecipitation Kit with antibodies to PTGDS, MYH9 or GSK3-β, western blotting. A general note: In western blotting, separated proteins are transferred to a membrane and probed.
The target of assay [2] is T1, Glycoprotein prostaglandin D2 synthase (PTGDS) (human (endogenous in LY1 and LY3)) (UniProt P41222).
T1 sequence (chain, N-glycosylation at Asn51 and Asn78): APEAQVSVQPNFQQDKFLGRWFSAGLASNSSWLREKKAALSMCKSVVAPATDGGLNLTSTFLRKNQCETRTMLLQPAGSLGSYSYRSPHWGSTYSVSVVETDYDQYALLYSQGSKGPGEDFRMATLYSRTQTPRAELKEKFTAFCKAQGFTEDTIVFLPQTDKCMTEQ
The assay is described as above.

No constants are given. Whether binding was seen depends on the method and setting. In cells and extracts the contact can be indirect. Some entries that bind do so weakly or less than the wild type. For part of these data: Where a sequence is shown, tags or fusion partners need not be part of it.

Consider GSK3-β (from UniProt P49841 1-420), for which the values for the binding entry in assay [1] and in assay [2] were “binds” and “no binding”, respectively.
For MYH9 (from UniProt P35579 1-1960), in assay [2], the binding result is “binds”.
